Values from PubChem BioAssay AID1224830 (NIAID, 2016).

Aim: 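Genes whose knock-down alters the TNF-alpha reporter response to LPS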 (primary screen)
System: human THP-1 monocytic leukaemia cells, TNF dual-luciferase reporter clone, PMA-differentiated to macrophage-like cells
Reagent: siRNA pool against human genes, 50 nM
Timing: LPS for 4 h, given about 3 days after siRNA transfection
Treatment: bacterial LPS (TLR4 ligand), 10 ng/ml
Measured: 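Ratio of firefly to renilla light, scaled to the plate median and expressed as a robust z-score per replicate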
Direction: TNF reporter robust z-score: higher = stronger TNF reporter response to LPS
Rule for the call: 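Each well counts as active if its z-score is over 2.8 or under -1.5; controls are left without a call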
Shown is a random part of about 18,000 reagents. About 2,900 of all reagents (16%) were called active. 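Calls are made per well; low scores hint the gene aids the LPS response, high scores that it dampens it.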 Repeated entries: four replicate wells of each siRNA pool.

| target | TNF reporter robust z-score | Outcome |
| --- | --- | --- |
| SLC39A12 | -0.14 | inactive |
| SLC39A12 | -0.17 | inactive |
| SLC39A12 | 0.15 | inactive |
| SLC39A12 | 0.29 | inactive |
| CDK2AP1 (cyclin dependent kinase 2 associated protein 1) | 0.26 | inactive |
| CDK2AP1 (cyclin dependent kinase 2 associated protein 1) | 0.56 | inactive |
| CDK2AP1 (cyclin dependent kinase 2 associated protein 1) | 0.21 | inactive |
| CDK2AP1 (cyclin dependent kinase 2 associated protein 1) | -0.06 | inactive |
| STYXL1 (serine/threonine/tyrosine interacting like 1) | -0.75 | inactive |
| STYXL1 (serine/threonine/tyrosine interacting like 1) | -0.3 | inactive |
| STYXL1 (serine/threonine/tyrosine interacting like 1) | -0.81 | inactive |
| STYXL1 (serine/threonine/tyrosine interacting like 1) | -0.83 | inactive |
| ARHGAP44 (Rho GTPase activating protein 44) | 0.62 | inactive |
| ARHGAP44 (Rho GTPase activating protein 44) | 2.61 | inactive |
| ARHGAP44 (Rho GTPase activating protein 44) | 0.68 | inactive |
| ARHGAP44 (Rho GTPase activating protein 44) | 0.56 | inactive |
| GPR62 (G protein-coupled receptor 62) | 0.06 | inactive |
| GPR62 (G protein-coupled receptor 62) | 1.28 | inactive |
| GPR62 (G protein-coupled receptor 62) | 0.34 | inactive |
| GPR62 (G protein-coupled receptor 62) | 1.18 | inactive |
| ZNF709 (zinc finger protein 709) | -0.46 | inactive |
| ZNF709 (zinc finger protein 709) | -0.55 | inactive |
| ZNF709 (zinc finger protein 709) | 1.14 | inactive |
| ZNF709 (zinc finger protein 709) | 1.22 | inactive |
| HLA-DRB1 (major histocompatibility complex, class II, DR beta 1) | 0.14 | inactive |
| HLA-DRB1 (major histocompatibility complex, class II, DR beta 1) | 0.19 | inactive |
| HLA-DRB1 (major histocompatibility complex, class II, DR beta 1) | 0.34 | inactive |
| HLA-DRB1 (major histocompatibility complex, class II, DR beta 1) | 1.98 | inactive |
| UHRF1 (ubiquitin like with PHD and ring finger domains 1) | 0.88 | inactive |
| UHRF1 (ubiquitin like with PHD and ring finger domains 1) | 2.7 | inactive |
| UHRF1 (ubiquitin like with PHD and ring finger domains 1) | 0.63 | inactive |
| TSNAXIP1 (translin associated factor X interacting protein 1) | 0.37 | inactive |
| TSNAXIP1 (translin associated factor X interacting protein 1) | 1.52 | inactive |
| TSNAXIP1 (translin associated factor X interacting protein 1) | 1.13 | inactive |
| TSNAXIP1 (translin associated factor X interacting protein 1) | 1.53 | inactive |
| ATL2 (atlastin GTPase 2) | 0.57 | inactive |
| ATL2 (atlastin GTPase 2) | 1.4 | inactive |
| ATL2 (atlastin GTPase 2) | -0.15 | inactive |
| ATL2 (atlastin GTPase 2) | -0.05 | inactive |
| PARK7 (Parkinsonism associated deglycase) | -1.23 | inactive |
| PARK7 (Parkinsonism associated deglycase) | -1.14 | inactive |
| PARK7 (Parkinsonism associated deglycase) | -1.1 | inactive |
| PARK7 (Parkinsonism associated deglycase) | -0.69 | inactive |
| MAPK13 (mitogen-activated protein kinase 13) | -0.54 | inactive |
| MAPK13 (mitogen-activated protein kinase 13) | -0.2 | inactive |
| MAPK13 (mitogen-activated protein kinase 13) | -1.16 | inactive |
| MAPK13 (mitogen-activated protein kinase 13) | -1.35 | inactive |
| ABHD17AP1 (ABHD17A pseudogene 1) | 0.87 | inactive |
| ABHD17AP1 (ABHD17A pseudogene 1) | 1.09 | inactive |
| ABHD17AP1 (ABHD17A pseudogene 1) | 0.35 | inactive |
| ABHD17AP1 (ABHD17A pseudogene 1) | 2.37 | inactive |
| PYCARD (PYD and CARD domain containing) | 1.22 | inactive |
| PYCARD (PYD and CARD domain containing) | 1.31 | inactive |
| PYCARD (PYD and CARD domain containing) | 1.15 | inactive |
| PYCARD (PYD and CARD domain containing) | 1.48 | inactive |
| TNFRSF13C (TNF receptor superfamily member 13C) | 0.58 | inactive |
| TNFRSF13C (TNF receptor superfamily member 13C) | 0.46 | inactive |
| TNFRSF13C (TNF receptor superfamily member 13C) | 0.95 | inactive |
| TNFRSF13C (TNF receptor superfamily member 13C) | 0.06 | inactive |
| LGR4 (leucine rich repeat containing G protein-coupled receptor 4) | 0.05 | inactive |
| LGR4 (leucine rich repeat containing G protein-coupled receptor 4) | 0.52 | inactive |
| LGR4 (leucine rich repeat containing G protein-coupled receptor 4) | 0.5 | inactive |
| LGR4 (leucine rich repeat containing G protein-coupled receptor 4) | 1.33 | inactive |
| ALG1 (ALG1 chitobiosyldiphosphodolichol beta-mannosyltransferase) | -0.24 | inactive |
| ALG1 (ALG1 chitobiosyldiphosphodolichol beta-mannosyltransferase) | 0.65 | inactive |
| ALG1 (ALG1 chitobiosyldiphosphodolichol beta-mannosyltransferase) | 0.21 | inactive |
| ALG1 (ALG1 chitobiosyldiphosphodolichol beta-mannosyltransferase) | -0.09 | inactive |

Ordered by “TNF reporter robust z-score” (high to low): 11 of the entries above.
| target | TNF reporter robust z-score | Outcome |
| --- | --- | --- |
| ARHGAP44 (Rho GTPase activating protein 44) | 2.61 | inactive |
| ARHGAP44 (Rho GTPase activating protein 44) | 0.68 | inactive |
| ARHGAP44 (Rho GTPase activating protein 44) | 0.62 | inactive |
| ARHGAP44 (Rho GTPase activating protein 44) | 0.56 | inactive |
| CDK2AP1 (cyclin dependent kinase 2 associated protein 1) | 0.21 | inactive |
| GPR62 (G protein-coupled receptor 62) | 0.06 | inactive |
| CDK2AP1 (cyclin dependent kinase 2 associated protein 1) | -0.06 | inactive |
| STYXL1 (serine/threonine/tyrosine interacting like 1) | -0.3 | inactive |
| STYXL1 (serine/threonine/tyrosine interacting like 1) | -0.75 | inactive |
| STYXL1 (serine/threonine/tyrosine interacting like 1) | -0.81 | inactive |
| STYXL1 (serine/threonine/tyrosine interacting like 1) | -0.83 | inactive |

Continued:
| target | TNF reporter robust z-score | Outcome |
| --- | --- | --- |
| TNFSF14 (TNF superfamily member 14) | 1.4 | inactive |
| TNFSF14 (TNF superfamily member 14) | 1.17 | inactive |
| TNFSF14 (TNF superfamily member 14) | 1.54 | inactive |
| TNFSF14 (TNF superfamily member 14) | 2.13 | inactive |
| GIMAP6 (GTPase, IMAP family member 6) | -0.38 | inactive |
| GIMAP6 (GTPase, IMAP family member 6) | -0.24 | inactive |
| GIMAP6 (GTPase, IMAP family member 6) | -0.5 | inactive |
| GIMAP6 (GTPase, IMAP family member 6) | 0.65 | inactive |
| USP7 (ubiquitin specific peptidase 7) | -0.38 | inactive |
| USP7 (ubiquitin specific peptidase 7) | 0.51 | inactive |
| USP7 (ubiquitin specific peptidase 7) | -0.23 | inactive |
| USP7 (ubiquitin specific peptidase 7) | -0.39 | inactive |
| PPA1 (inorganic pyrophosphatase 1) | -2.02 | active |
| PPA1 (inorganic pyrophosphatase 1) | -1.07 | inactive |
| PPA1 (inorganic pyrophosphatase 1) | -1.36 | inactive |
| PPA1 (inorganic pyrophosphatase 1) | -1.02 | inactive |
| RANBP10 (RAN binding protein 10) | 0.09 | inactive |
| RANBP10 (RAN binding protein 10) | 0.08 | inactive |
| RANBP10 (RAN binding protein 10) | 0.48 | inactive |
| RANBP10 (RAN binding protein 10) | 0.23 | inactive |
| ACVRL1 (activin A receptor like type 1) | -1.85 | active |
| ACVRL1 (activin A receptor like type 1) | -1.56 | active |
| ACVRL1 (activin A receptor like type 1) | -1.06 | inactive |
| ACVRL1 (activin A receptor like type 1) | -0.99 | inactive |
| TONSL (tonsoku like, DNA repair protein) | -1.26 | inactive |
| TONSL (tonsoku like, DNA repair protein) | -0.35 | inactive |
| TONSL (tonsoku like, DNA repair protein) | -0.51 | inactive |
| TONSL (tonsoku like, DNA repair protein) | 0.49 | inactive |
| DCLK1 (doublecortin like kinase 1) | 0.14 | inactive |
| DCLK1 (doublecortin like kinase 1) | 0.55 | inactive |
| DCLK1 (doublecortin like kinase 1) | -0.52 | inactive |
| DCLK1 (doublecortin like kinase 1) | 0.25 | inactive |
| SEC61B (SEC61 translocon subunit beta) | 0.03 | inactive |
| SEC61B (SEC61 translocon subunit beta) | 0.57 | inactive |
| SEC61B (SEC61 translocon subunit beta) | -1.85 | active |
| SEC61B (SEC61 translocon subunit beta) | -0.93 | inactive |
| ARHGEF11 (Rho guanine nucleotide exchange factor 11) | 1.08 | inactive |
| ARHGEF11 (Rho guanine nucleotide exchange factor 11) | 0.68 | inactive |
| ARHGEF11 (Rho guanine nucleotide exchange factor 11) | 1.16 | inactive |
| ARHGEF11 (Rho guanine nucleotide exchange factor 11) | 1.04 | inactive |
| CDK5R1 (cyclin dependent kinase 5 regulatory subunit 1) | 0.03 | inactive |
| CDK5R1 (cyclin dependent kinase 5 regulatory subunit 1) | -0.07 | inactive |
| CDK5R1 (cyclin dependent kinase 5 regulatory subunit 1) | -0.2 | inactive |
| CDK5R1 (cyclin dependent kinase 5 regulatory subunit 1) | -0.04 | inactive |
| SLC1A6 | -1.53 | active |
| SLC1A6 | -0.65 | inactive |
| SLC1A6 | -1.19 | inactive |
| SLC1A6 | -1.64 | active |
| ATP6V1B1 (ATPase H+ transporting V1 subunit B1) | 1.21 | inactive |
| ATP6V1B1 (ATPase H+ transporting V1 subunit B1) | 0.28 | inactive |
| ATP6V1B1 (ATPase H+ transporting V1 subunit B1) | 2.48 | inactive |
| ATP6V1B1 (ATPase H+ transporting V1 subunit B1) | -0.64 | inactive |
| EPCIP (exosomal polycystin 1 interacting protein) | 0.42 | inactive |
| EPCIP (exosomal polycystin 1 interacting protein) | 0.61 | inactive |
| EPCIP (exosomal polycystin 1 interacting protein) | -0.24 | inactive |
| EPCIP (exosomal polycystin 1 interacting protein) | 1.92 | inactive |
| TMBIM6 (transmembrane BAX inhibitor motif containing 6) | 0.96 | inactive |
| TMBIM6 (transmembrane BAX inhibitor motif containing 6) | -0.25 | inactive |
| TMBIM6 (transmembrane BAX inhibitor motif containing 6) | -0.54 | inactive |
| TMBIM6 (transmembrane BAX inhibitor motif containing 6) | 1.02 | inactive |
| ZNF7 (zinc finger protein 7) | 0.1 | inactive |
| ZNF7 (zinc finger protein 7) | -0.13 | inactive |
| ZNF7 (zinc finger protein 7) | 0.43 | inactive |
| ZNF7 (zinc finger protein 7) | 0.65 | inactive |
| PRG2 (proteoglycan 2, pro eosinophil major basic protein) | -1.57 | active |
| PRG2 (proteoglycan 2, pro eosinophil major basic protein) | 0.02 | inactive |
| PRG2 (proteoglycan 2, pro eosinophil major basic protein) | 1.15 | inactive |
| PRG2 (proteoglycan 2, pro eosinophil major basic protein) | -0.27 | inactive |
| NR2F1 (nuclear receptor subfamily 2 group F member 1) | 0.38 | inactive |
| NR2F1 (nuclear receptor subfamily 2 group F member 1) | -0.6 | inactive |
| NR2F1 (nuclear receptor subfamily 2 group F member 1) | -0.01 | inactive |
| NR2F1 (nuclear receptor subfamily 2 group F member 1) | -0.39 | inactive |
| CEACAM18 (CEA cell adhesion molecule 18) | -1.82 | active |
| CEACAM18 (CEA cell adhesion molecule 18) | -1.48 | inactive |
| CEACAM18 (CEA cell adhesion molecule 18) | -1.96 | active |
| CEACAM18 (CEA cell adhesion molecule 18) | -1.87 | active |
